Measured values reported in patent US20140356364A1 (AMPLIMMUNE, published 2014).
No constants are given. Whether binding was seen depends on the method and setting. Some binding calls cover weakened binding; strength is not graded here.

By UniProt entry, the sequences of proteins in these tests, tags left out. Where a name states a change or a piece, a line headed by the entry shows the natural chain unless it says otherwise.
UniProt Q7Z7D3: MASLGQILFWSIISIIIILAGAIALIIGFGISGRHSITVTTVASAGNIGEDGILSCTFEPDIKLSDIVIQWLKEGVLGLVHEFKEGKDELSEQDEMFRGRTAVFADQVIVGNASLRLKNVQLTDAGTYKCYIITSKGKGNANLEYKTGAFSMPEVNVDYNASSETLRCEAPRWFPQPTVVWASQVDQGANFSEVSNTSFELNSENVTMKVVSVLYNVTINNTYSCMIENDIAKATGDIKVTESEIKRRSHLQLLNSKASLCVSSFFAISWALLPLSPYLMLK

Columns and labels:
[1] = target: T1, Human B7-H4 protein antigen (coated on ELISA plates) (human) (UniProt Q7Z7D3); assay: ELISA, conditioned medium on coated human B7-H4 antigen
T1 sequence: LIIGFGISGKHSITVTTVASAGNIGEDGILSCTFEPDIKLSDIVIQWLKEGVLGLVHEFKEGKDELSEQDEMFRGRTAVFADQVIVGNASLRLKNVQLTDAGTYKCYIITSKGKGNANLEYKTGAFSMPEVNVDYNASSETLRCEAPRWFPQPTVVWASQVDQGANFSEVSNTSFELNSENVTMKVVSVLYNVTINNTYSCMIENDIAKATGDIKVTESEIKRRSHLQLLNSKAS

[2] = target: T1, Human B7-H4 protein antigen (coated on ELISA plates) (human); assay: ELISA on coated human B7-H4 antigen, single point and dose response

B1: recombinant chimeric anti-B7-H4 antibody 2D1 (2D1 heavy chain / 2D1 light chain, human IgG4 S228P) (antibody, V domains shown)
VH: EVQLVESGGGLVKPGGSLKLSCAASGFTFNSHGMSWVRQTPEKRLDWVATISDGGTYTYYPVNVKGRFTISRDNAKNNLYLQMSHLKSEDTAMYYCARDGGGGAYWGQGTLVTVSA
VL: DVVMTQTPLSLPVSLGDQASISCRSSHSLVHSNGNTYLHWYLQKPGQSPNLLIYIVSNRFSGVPDRFSGSGSGTDFTLKISRVEAEDLGVYFCSQSTHVPPTFGAGTKLELKR
notes: tested as CHO conditioned medium; also called 2D1 HC + 2D1 LC
binding [1]: binds | binding [2]: binds

B2: recombinant chimeric anti-B7-H4 antibody 2H9 (2H9 heavy chain / 2H9 light chain, human IgG4 S228P) (antibody, V domains shown)
VH: EVQLVESGGNLVKPGGSLKLSCAASGFTFSNSAMSWVRQTPEKRLEWVATISDGGRYTYYPDNVKGRFTISRDNAKNNLYLQMSHLKSEDTALYYCARDRPHWYFDVWGTGATVTVSS
VL: DIVLTQSPASLAVSLGQRATISCRASESIDNYGISFMHWYQQKPGQPPKLLIYRASNLESGIPARFSGSGSRTDFTLTINPVETDDVATYFCQQSDEGRTFGGGTKLEIKR
notes: tested as CHO conditioned medium; also called 2H9 HC + 2H9 LC
binding [1]: binds | binding [2]: binds
